Measurements from paper doi:10.1101/2024.08.09.607194.
Results are given in words; binding and its absence hold for the method and conditions named. Binding seen in cells or lysates may run through a third protein. Some binding calls cover weakened binding; strength is not graded here. For some of these results: Where a sequence is shown, tags or fusion partners need not be part of it. Values belong to the substance of their own block, whether it stands above or below them.

Protein sequences, listed by entry. Tags and fused reporters are not part of them.
UniProt O88943: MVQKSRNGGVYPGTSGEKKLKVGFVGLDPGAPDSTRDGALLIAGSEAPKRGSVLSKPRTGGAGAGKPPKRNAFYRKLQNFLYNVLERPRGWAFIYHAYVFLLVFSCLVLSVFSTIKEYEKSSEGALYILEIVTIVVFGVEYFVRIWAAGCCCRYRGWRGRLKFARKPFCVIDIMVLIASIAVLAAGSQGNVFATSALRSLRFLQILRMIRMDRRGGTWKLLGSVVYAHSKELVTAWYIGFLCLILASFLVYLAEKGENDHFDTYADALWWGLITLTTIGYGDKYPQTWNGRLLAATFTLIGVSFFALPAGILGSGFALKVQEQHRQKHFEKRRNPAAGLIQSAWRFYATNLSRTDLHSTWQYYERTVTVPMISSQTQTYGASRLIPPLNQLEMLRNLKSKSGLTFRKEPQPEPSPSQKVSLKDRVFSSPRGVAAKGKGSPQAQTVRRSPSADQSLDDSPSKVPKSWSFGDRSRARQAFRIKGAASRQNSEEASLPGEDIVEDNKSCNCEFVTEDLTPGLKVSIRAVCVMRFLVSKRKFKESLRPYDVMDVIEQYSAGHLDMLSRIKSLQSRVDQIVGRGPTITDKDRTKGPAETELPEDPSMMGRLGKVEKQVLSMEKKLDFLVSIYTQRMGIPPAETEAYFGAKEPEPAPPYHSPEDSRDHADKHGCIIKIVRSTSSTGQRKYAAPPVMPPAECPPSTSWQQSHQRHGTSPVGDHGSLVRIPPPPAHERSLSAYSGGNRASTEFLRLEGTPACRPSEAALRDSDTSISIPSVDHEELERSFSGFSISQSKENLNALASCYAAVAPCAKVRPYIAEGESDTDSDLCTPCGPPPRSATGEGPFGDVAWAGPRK
UniProt O43526: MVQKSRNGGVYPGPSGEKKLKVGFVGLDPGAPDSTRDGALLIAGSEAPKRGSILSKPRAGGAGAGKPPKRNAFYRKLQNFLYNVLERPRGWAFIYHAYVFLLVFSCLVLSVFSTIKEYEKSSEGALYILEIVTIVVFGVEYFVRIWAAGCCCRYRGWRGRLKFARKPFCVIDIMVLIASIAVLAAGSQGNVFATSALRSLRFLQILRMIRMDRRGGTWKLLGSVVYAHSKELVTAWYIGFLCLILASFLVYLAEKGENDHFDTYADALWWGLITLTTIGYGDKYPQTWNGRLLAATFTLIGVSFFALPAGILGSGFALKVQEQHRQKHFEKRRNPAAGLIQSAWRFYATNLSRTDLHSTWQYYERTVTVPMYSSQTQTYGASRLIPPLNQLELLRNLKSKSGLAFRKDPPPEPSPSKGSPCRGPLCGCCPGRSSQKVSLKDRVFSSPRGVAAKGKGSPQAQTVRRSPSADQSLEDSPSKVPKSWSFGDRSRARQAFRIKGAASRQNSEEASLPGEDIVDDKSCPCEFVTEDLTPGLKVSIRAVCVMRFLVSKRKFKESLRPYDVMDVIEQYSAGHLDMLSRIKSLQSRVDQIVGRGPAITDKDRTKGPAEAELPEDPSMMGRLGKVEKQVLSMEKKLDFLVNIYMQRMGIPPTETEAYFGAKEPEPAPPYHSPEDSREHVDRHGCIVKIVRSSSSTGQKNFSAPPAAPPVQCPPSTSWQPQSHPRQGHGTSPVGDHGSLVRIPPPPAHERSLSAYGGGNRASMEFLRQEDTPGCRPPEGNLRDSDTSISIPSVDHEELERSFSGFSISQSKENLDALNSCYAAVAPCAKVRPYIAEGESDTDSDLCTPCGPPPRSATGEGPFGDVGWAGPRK

Experiments:
[1] = molecular target: T1, TARP-γ8 (endogenous, rat hippocampal neurons) (rat (endogenous in hippocampal neurons)) (UniProt Q8VHW5); test: proximity ligation
T1 sequence: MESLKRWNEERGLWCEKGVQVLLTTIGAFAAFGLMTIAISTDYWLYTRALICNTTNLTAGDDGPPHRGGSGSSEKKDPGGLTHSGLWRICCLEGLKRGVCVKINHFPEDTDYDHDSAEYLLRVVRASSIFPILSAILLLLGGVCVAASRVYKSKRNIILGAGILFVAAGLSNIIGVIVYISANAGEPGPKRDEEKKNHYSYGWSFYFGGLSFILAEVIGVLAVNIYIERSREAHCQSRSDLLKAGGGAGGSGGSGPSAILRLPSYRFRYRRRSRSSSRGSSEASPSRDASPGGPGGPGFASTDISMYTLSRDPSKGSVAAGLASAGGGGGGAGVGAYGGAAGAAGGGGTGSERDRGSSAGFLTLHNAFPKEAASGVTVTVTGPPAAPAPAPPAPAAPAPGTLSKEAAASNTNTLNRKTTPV

[2] = molecular target: T2, TARP-γ3 (endogenous, rat hippocampal neurons) (rat (endogenous in hippocampal neurons)) (UniProt Q8VHX0); test: proximity ligation
T2 sequence: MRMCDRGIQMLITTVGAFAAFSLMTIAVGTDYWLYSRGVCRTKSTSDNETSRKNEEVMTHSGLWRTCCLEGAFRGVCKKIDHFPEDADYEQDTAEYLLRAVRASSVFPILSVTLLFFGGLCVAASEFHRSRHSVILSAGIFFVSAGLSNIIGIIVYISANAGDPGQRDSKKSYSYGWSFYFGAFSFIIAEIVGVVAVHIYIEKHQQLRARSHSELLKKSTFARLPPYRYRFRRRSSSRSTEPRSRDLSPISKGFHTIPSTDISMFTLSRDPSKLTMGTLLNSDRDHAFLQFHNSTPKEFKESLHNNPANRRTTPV

[3] = molecular target: T3, TARP-γ2 (stargazin; endogenous, rat neurons) (rat (endogenous in cortical and hippocampal neurons)) (UniProt Q71RJ2); test: proximity ligation
T3 sequence: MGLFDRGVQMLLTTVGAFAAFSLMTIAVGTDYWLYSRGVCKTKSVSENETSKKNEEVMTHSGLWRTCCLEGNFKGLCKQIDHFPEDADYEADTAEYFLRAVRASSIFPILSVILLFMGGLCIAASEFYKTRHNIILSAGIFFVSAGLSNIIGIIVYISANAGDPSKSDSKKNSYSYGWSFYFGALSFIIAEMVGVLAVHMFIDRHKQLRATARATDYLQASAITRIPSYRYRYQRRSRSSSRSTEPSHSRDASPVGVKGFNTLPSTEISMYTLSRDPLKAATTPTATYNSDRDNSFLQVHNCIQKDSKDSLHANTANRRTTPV

[4] = molecular target: T4, TARP-γ2 (pcDNA3.1_TARPγ2) (UniProt Q71RJ2); test: co-IP
T4 sequence: T3 sequence

[5] = molecular target: T5, TARP-γ8 (piRES2-EGFP_TARPγ8) (UniProt Q8VHW5); test: co-IP
T5 sequence: T1 sequence

[6] = molecular target: T6, TARP-γ3 (piRES2-EGFP_TARPγ3) (UniProt Q8VHX0); test: co-IP
T6 sequence: T2 sequence

[7] = molecular target: T7, TARPγ2-CFAST-HA (from pFUGW_mCherry-TARPγ2-CFAST-HA) (UniProt Q71RJ2); test: split reporter
T7 sequence: T3 sequence

binding [1]: binds
binding [2]: binds
binding [3]: binds
Substance: Kv7.2 subunit of M-channels (endogenous, rat neurons) (from UniProt O88943 1-852)

binding [4]: binds
binding [5]: binds
binding [6]: binds
Substance: EGFP-Kv7.2-HA (pEGFP-C2_Kv7.2-HA) (from UniProt O43526 1-872)

binding [7]: binds
Substance: NFAST-FLAG-Kv7.2 (pFUGW_NFAST-FLAG-4xGGS-Kv7.2) (from UniProt O43526 1-872)
